PubChem BioAssay AID504744 | Drosophila RNAi Screening Center, 2011

- Test: 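Identify dsRNAs that increase or decrease phospho-dAkt after insulin treatment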 (primary screen)
- System: Drosophila Kc167 cells
- Reagent: long dsRNA against Drosophila genes, 250 ng dsRNA per well of a 384-well plate
- Time to read-out: 3 days of knock-down, then overnight serum-free starvation before stimulation
- Conditions: bovine insulin at 387 nM for 10 minutes after 12 h without serum
- Measured: 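Per-well phospho-dAkt level from an in-cell fluorescent antibody stain, divided by a DNA-dye signal; log2 residuals turned into z-scores that take cell number into account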
- Call rule: 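Under insulin, a gene counts as a hit if the average z-score of two replicates lies above 2.5 or below -2.5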
In all, the deposit lists about 23,000 reagents; below is an unselected part of those with a known target gene and a result. Of all reagents, 98 (0.43%) got an active call. 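Only hit calls are given; the phospho-dAkt signals, z-scores and hit direction were not deposited.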 Reagents against one gene are numbered here. A plus sign joins genes that one reagent is predicted to hit.

The opening 3 records, to show the layout:
gene knocked down,reagent no.,Call
CG9759,1,inactive
CG42361,1,inactive
shn (schnurri),1,inactive

The list itself, from the first entry:
gene knocked down,reagent no.,Call
CG9759,1,inactive
CG42361,1,inactive
shn (schnurri),1,inactive
shn (schnurri),2,inactive
CG10177,1,inactive
CG34334,1,inactive
corn (cornetto),1,inactive
corn (cornetto),2,inactive
CG10013,1,inactive
"Nubpl (NUBP iron-sulfur cluster assembly factor, mitochondrial)",1,inactive
se (sepia),1,inactive
mtSSB (mitochondrial single stranded DNA-binding protein),1,inactive
Pcf11 (Pcf11 cleavage and polyadenylation factor subunit),1,inactive
ppk13 (pickpocket 13),1,inactive
CCT4 (Chaperonin containing TCP1 subunit 4),1,inactive
Tsp42Ek (Tetraspanin 42Ek),1,inactive
Rh5 (Rhodopsin 5),1,inactive
pon (partner of numb),1,inactive
Fer2 (48 related 2),1,inactive
Coq8 (Coenzyme Q8),1,inactive
CG3982,1,inactive
vilya,1,inactive
CG14113,1,inactive
CG41020 (retired record),1,inactive
bur (burgundy),1,inactive
Or22c (Odorant receptor 22c),1,inactive
RhoGAP1A (Rho GTPase activating protein at 1A),1,inactive
RhoGAP1A (Rho GTPase activating protein at 1A),2,inactive
eEF5 (eukaryotic translation elongation factor 5),1,inactive
CG9590,1,inactive
Tsp47F (Tetraspanin 47F),1,inactive
Zw (Zwischenferment),1,inactive
CG34276,1,inactive
CG7231,1,inactive
CG6847,1,inactive
CG6847,2,inactive
CG14273,1,inactive
"E(spl)mbeta-HLH (Enhancer of split mbeta, helix-loop-helix)",1,inactive
CAH2 (Carbonic anhydrase 2),1,inactive
CG15861,1,inactive
cact (cactus),1,inactive
CG32436,1,inactive
CG32436,2,inactive
Cpr57A + Obp57d,1,inactive
Cpr57A + Obp57d,2,inactive
Hsp70Bb + Hsp70Ba + Hsp70Bc + 1 more,1,inactive
Hsp70Bb + Hsp70Ba + Hsp70Bc + 1 more,2,inactive
Cox10 (Cytochrome c oxidase assembly factor 10),1,inactive
tst (twister),1,inactive
Su(P) (Suppressor of ref(2)P sterility),1,inactive
CR11386 + CR33222,1,inactive
dgrn (degringolade),1,inactive
bib (big brain),1,inactive
"Polr2K (RNA polymerase II, I and III subunit K)",1,inactive
CG15308,1,inactive
gukh (GUK-holder),1,inactive
gukh (GUK-holder),2,inactive
gukh (GUK-holder),3,inactive
rk (rickets),1,inactive
Tsp74F (Tetraspanin 74F),1,inactive
CG14605,1,inactive
CG9098,1,inactive
CG9098,2,inactive
Yp2 (Yolk protein 2),1,inactive
